Assay results taken from patent publication US20080293679A1, “Use of carotenoids and/or carotenoid derivatives/analogs for reduction/inhibition of certain negative effects of COX inhibitors” (priority 2005, published 2008).

What was measured:
[1] = Small angle x-ray diffraction of carotenoids in POPC membranes; type: physicochemical; conditions: 20° C., control 55
[2] = Small-angle x-ray diffraction of COX-2 inhibitors in membrane lipid bilayers; type: physicochemical; conditions: drug to phospholipid 1:10 (<5% by mass), cholesterol:phospholipid 0.2:1
[3] = 74% RH, C/P 0.2, carotenoids/POPC 1/15

Compound	d Space [1, 3]	d Space ([1]; 87% RH, carotenoids/POPC 1/15)	region of decrease in electron density (hydrocarbon core), distance from the membrane center [2]	region of increase in electron density, distance from the center of the membrane [2]
CC1=C(/C=C/C(C)=C/C=C/C(C)=C/C=C/C=C(C)/C=C/C=C(C)/C=C/C2=C(C)CCCC2(C)C)C(C)(C)CCC1 [β-Carotene]	57 Å	61 Å		
CC1=CC(O)CC(C)(C)C1/C=C/C(C)=C/C=C/C(C)=C/C=C/C=C(C)/C=C/C=C(C)/C=C/C1=C(C)CC(O)CC1(C)C (stereo not drawn) [Lutein, β,ε-carotene-3,3′-diol]	57 Å	60 Å		
CC1=C(/C=C/C(C)=C/C=C/C(C)=C/C=C/C=C(C)/C=C/C=C(C)/C=C/C2=C(C)C(=O)[C@@H](O)CC2(C)C)C(C)(C)C[C@H](O)C1=O [Astaxanthin, 3,3′-dihydroxy-β,β′-carotene-4,4′-dione]	55 Å	57 Å		
CS(=O)(=O)c1ccc(C2=C(c3ccccc3)C(=O)OC2)cc1 [rofecoxib]			0-10 Å	22-28 Å
CC1=C(/C=C/C(C)=C/C=C/C(C)=C/C=C/C=C(C)/C=C/C=C(C)/C=C/C2=C(C)C[C@@H](O)CC2(C)C)C(C)(C)C[C@H](O)C1 [Zeaxanthin]	57 Å	58 Å		
CC(C)=CCC/C(C)=C/C=C/C(C)=C/C=C/C(C)=C/C=C/C=C(C)/C=C/C=C(C)/C=C/C=C(\C)CCC=C(C)C [Lycopene]	59 Å	65 Å		
